Measurements as given in publication PMC5969521, “Actin-related proteins regulate the RSC chromatin remodeler by weakening intramolecular interactions of the Sth1 ATPase” (Communications Biology, 2018).

Tests used:
[1] = test system: Rtt102 + Arp7 + Arp9 + Sth1(301-1097); assay: EMSA; details: single slow band, EMSA: 20 mM HEPES pH 7.5, 50 mM NaCl, 1 mM MgCl2, 5% glycerol, 1 mM DTT, 0.1 mg/mL BSA, 1 mM ADP or AMPPNP, room temperature, recombinant protein
[2] = test system: Arp7 + Arp9 + Sth1(301-1097); assay: fluorescence anisotropy; details: 1 mM ADP, Kd only in figure; Anisotropy: 20 mM HEPES pH 7.5, 50 mM NaCl, 2.5 mM MgCl2, 5% glycerol, 1 mM DTT, 0.1 mg/mL BSA, 1 mM AMPPNP or ADP, 50 nM DNA …; recombinant protein; label: 5'-fluorescein
[3] = test system: Rtt102 + Arp7 + Arp9 + Sth1(301-1097); assay: fluorescence anisotropy; details: 1 mM ADP, Kd only in figure; Anisotropy: 20 mM HEPES pH 7.5, 50 mM NaCl, 2.5 mM MgCl2, 5% glycerol, 1 mM DTT, 0.1 mg/mL BSA, 1 mM AMPPNP or ADP, 50 nM DNA …; recombinant protein; label: 5'-fluorescein
[4] = biological target: T1, Sth1(301-1097) (UniProt P32597); assay: fluorescence anisotropy; details: 1 mM ADP, weaker than with AMPPNP, Kd only in figure; Anisotropy: 20 mM HEPES pH 7.5, 50 mM NaCl, 2.5 mM MgCl2, 5% glycerol, 1 mM DTT, 0.1 mg/mL BSA, 1 mM AMPPNP or ADP, 50 nM DNA, 20 C; recombinant protein; residues 301-1097; label: 5'-fluorescein
T1 sequence (looked up): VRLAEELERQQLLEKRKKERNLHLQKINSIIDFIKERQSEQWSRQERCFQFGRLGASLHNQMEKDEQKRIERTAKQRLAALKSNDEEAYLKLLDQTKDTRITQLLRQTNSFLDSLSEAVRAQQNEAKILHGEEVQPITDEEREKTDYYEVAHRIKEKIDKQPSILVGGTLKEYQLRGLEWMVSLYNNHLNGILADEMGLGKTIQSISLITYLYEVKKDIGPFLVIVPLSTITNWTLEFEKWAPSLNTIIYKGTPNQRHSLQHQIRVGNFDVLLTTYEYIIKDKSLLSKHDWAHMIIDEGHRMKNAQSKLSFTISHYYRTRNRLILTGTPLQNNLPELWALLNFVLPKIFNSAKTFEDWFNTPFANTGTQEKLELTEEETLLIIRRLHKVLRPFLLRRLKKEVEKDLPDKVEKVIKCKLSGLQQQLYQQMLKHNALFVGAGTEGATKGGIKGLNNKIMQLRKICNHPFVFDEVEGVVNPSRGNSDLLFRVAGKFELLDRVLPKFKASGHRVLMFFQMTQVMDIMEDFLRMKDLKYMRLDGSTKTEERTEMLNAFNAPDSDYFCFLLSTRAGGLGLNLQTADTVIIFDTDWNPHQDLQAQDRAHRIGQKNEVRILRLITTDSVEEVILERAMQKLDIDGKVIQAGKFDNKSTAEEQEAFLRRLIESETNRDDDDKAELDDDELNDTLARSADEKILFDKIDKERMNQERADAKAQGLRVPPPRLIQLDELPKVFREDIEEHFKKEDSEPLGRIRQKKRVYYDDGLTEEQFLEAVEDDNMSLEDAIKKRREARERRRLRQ

[5] = biological target: T2, Sth1(365-1097) (UniProt P32597); assay: fluorescence anisotropy; details: Anisotropy: 20 mM HEPES pH 7.5, 50 mM NaCl, 2.5 mM MgCl2, 5% glycerol, 1 mM DTT, 0.1 mg/mL BSA, 1 mM AMPPNP or ADP, 50 nM DNA, 20 C, recombinant protein, residues 365-1097, label: 5'-fluorescein
T2 sequence (looked up): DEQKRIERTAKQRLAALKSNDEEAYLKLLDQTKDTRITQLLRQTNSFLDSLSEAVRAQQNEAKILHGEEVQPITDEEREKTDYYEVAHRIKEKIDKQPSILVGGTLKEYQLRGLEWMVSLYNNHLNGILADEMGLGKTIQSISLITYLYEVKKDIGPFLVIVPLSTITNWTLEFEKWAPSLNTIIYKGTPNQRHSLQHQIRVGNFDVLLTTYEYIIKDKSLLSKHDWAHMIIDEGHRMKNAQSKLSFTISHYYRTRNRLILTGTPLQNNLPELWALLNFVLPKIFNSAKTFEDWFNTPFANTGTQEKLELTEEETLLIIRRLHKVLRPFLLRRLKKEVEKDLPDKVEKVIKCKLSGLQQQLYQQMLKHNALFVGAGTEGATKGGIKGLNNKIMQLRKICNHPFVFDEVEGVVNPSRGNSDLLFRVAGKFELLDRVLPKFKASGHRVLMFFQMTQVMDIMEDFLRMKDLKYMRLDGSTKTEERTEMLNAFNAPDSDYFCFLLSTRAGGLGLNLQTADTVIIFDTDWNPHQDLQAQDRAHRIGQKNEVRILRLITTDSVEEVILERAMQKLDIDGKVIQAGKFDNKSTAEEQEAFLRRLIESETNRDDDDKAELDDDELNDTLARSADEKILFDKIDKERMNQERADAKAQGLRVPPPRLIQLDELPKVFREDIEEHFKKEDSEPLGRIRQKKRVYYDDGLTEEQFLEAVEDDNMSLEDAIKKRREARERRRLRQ

[6] = biological target: T3, Sth1(388-1097) (UniProt P32597); assay: fluorescence anisotropy; details: Anisotropy: 20 mM HEPES pH 7.5, 50 mM NaCl, 2.5 mM MgCl2, 5% glycerol, 1 mM DTT, 0.1 mg/mL BSA, 1 mM AMPPNP or ADP, 50 nM DNA, 20 C, recombinant protein, residues 388-1097, label: 5'-fluorescein
T3 sequence (looked up): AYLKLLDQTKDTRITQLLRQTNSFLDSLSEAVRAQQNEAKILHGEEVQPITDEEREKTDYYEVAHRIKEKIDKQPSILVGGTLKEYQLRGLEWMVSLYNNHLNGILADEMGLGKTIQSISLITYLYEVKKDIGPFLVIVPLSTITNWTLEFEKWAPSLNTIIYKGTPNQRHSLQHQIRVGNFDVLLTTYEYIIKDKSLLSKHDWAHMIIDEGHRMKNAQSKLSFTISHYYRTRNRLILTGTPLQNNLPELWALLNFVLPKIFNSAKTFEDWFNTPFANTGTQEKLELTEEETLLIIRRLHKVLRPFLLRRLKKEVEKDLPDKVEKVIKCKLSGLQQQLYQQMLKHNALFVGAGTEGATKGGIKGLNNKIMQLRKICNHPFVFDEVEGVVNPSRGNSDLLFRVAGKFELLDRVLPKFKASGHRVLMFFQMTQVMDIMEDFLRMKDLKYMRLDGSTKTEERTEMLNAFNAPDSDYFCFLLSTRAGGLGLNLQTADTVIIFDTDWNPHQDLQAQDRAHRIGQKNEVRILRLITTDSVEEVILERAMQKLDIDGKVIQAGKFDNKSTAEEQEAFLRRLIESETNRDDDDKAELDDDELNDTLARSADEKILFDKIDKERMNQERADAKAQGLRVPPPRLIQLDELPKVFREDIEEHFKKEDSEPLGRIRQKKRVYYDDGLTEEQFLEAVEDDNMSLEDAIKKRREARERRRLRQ

[7] = 1 mM ADP, weaker than with AMPPNP, Kd only in figure

Row | Sequence | binding result ([1]; 1 mM ADP) | binding result ([1]; 1 mM AMPPNP) | binding result [2] | binding result [3] | binding result [4] | binding result [5, 7] | Kd ([5]; 1 mM AMPPNP) [µM] | binding result [6, 7] | Kd ([6]; 1 mM AMPPNP) [µM]
1 | TCCATGTCCATGGATACGTGG / TCCACGTATCCATGGACATGGA [unlabeled DNA duplex] | binds more weakly | binds more weakly | – | – | – | – | – | – | –
2 | TCCATGTCCATGGATACGTGG / TCCACGTATCCATGGACATGGA [fluorescein DNA duplex] | – | – | binds more weakly | binds more weakly | binds more weakly | binds more weakly | 0.83 | binds more weakly | 1.32

The exact form of at least one protein or probe is not confirmed. A weaker result is weaker than the reference pair of the same experiment. For part of these data: At least one verdict was read from the data and is not stated in words by the source. For part of these data: Where a protein sequence is shown, tags need not be part of it.
